# Test results as given in US8883964B2 (The Johns Hopkins University, priority 2004, dated 2014).
# Assay: general procedure: Fmoc solid-phase peptide synthesis; Wang resin; HBTU/DIPEA
# Conditions: whole synthesis, MALDI-TOF
substance,measurement,value
(Pro-Hyp-Gly)7-Tyr,final ms purity,greater than 99% purity
